Data published in patent US5034510A, “Antibacterial substance” (Shin-Etsu Chemical Co., Ltd., priority 1986, dated 1991).
Not every detail of the peptide structures is certain; ends, links or a residue may be inferred. Where a SMILES comes first, the peptide text is derived from it. The star is where a group is joined. NHOctyl = CCCCCCCCN*

Test system: various bacteria
Assay: Antibacterial activities against various bacteria (summary of MIC tables)
Format: cell-based
Conditions: all bacteria tested

`CCCCCCCCNC(=O)CNC(=O)[C@H](C)NC(=O)[C@H](CCCCN)NC(=O)[C@@H](NC(=O)[C@@H](NC(=O)CNC(=O)[C@H](CC(=O)O)NC(=O)[C@H](CCCNC(=N)N)NC(=O)[C@@H](NC(=O)[C@H](CC(N)=O)NC(=O)[C@H](CCCNC(=N)N)NC(=O)CNC(=O)[C@H](CCSC)NC(=O)[C@H](CCCCN)NC(=O)[C@H](CCC(=O)O)NC(=O)[C@@H](NC(=O)[C@H](CCCCN)NC(=O)[C@H](CCCCN)NC(=O)[C@H](Cc1ccccc1)NC(=O)[C@@H](NC(=O)[C@H](CCCCN)NC(=O)[C@H](Cc1c[nH]c2ccccc12)NC(=O)[C@@H](N)CCCNC(=N)N)[C@@H](C)CC)[C@@H](C)CC)[C@@H](C)CC)[C@@H](C)CC)C(C)C` [H-(1-23)NH(CH2)7 CH3, H--(1-23)--NH(CH2)7 CH3] (H-RWKIFKKIEKMGRNIRDGIVKAG-NHOctyl) was tested, and the “antibacterial activities (in words)” value was “better antibacterial activities than H--(1-18)--NH(CH2)7 CH3 and the synthetic lepidopteran A”.
